Reference: article PMC3355116
Results are given in words; binding and its absence hold for the method and conditions named. In cells and extracts the contact can be indirect. Some binding calls cover weakened binding; strength is not graded here. Sequences can lack the tags named with a protein.

The chains behind the UniProt entries cited, without tags or fusion partners.
UniProt P41212: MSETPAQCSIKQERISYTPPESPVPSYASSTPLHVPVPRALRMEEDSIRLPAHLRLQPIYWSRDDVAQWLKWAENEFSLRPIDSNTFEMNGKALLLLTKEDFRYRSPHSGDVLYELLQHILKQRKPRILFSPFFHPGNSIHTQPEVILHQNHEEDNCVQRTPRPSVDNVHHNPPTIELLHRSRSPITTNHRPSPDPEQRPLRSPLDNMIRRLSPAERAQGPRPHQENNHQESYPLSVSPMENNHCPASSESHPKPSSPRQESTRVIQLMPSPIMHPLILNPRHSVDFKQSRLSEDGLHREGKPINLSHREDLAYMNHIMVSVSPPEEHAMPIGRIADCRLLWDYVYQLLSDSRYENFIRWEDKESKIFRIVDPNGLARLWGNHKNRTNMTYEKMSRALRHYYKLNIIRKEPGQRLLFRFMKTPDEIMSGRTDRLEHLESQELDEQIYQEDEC

Molecular target: T1, myc-TEL2SAM (human) (UniProt Q9Y603)
T1 sequence: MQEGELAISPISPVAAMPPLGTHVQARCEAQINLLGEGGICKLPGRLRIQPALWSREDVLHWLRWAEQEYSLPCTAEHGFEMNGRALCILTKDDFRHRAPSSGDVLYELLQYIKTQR
Assay: co-IP; cotransfected HeLa cells lysed by sonication (50 mM Tris pH 7.5, 100 mM NaCl, 1 mM EDTA, 1% Triton-X); Myc agarose beads overnight at 4°C; washes with 0.25% Triton-X; western blot

- binding: binds
Substance: HA-TEL1 (from UniProt P41212 1-452)
